Measured values reported in PMC3492284.
No constants are given. Whether binding was seen depends on the method and setting. Binding seen in cells or lysates may run through a third protein. Tags and fused reporters may be left off the sequences shown.

Molecular target: T1, HA-epitope tagged Cbl-c, full length (UniProt Q9ULV8)
T1 sequence: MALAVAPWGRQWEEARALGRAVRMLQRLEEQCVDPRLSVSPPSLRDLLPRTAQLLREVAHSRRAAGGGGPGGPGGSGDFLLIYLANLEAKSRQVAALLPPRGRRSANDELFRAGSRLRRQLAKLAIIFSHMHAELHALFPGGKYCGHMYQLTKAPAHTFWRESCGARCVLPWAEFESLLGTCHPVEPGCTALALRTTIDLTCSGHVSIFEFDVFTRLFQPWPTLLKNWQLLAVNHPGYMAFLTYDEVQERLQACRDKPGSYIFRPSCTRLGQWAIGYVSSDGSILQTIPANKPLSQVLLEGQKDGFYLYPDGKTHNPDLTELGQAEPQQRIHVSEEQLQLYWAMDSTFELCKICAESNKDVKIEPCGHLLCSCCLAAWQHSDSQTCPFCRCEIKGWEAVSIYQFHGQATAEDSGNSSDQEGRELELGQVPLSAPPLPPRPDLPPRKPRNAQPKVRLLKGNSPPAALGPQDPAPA
Experiment: co-IP; HEK293T cells co-transfected; 200 µg lysate protein; HA-tagged Cbl proteins precipitated with HA-affinity matrix overnight at 4°C; lysis buffer 10 mM Tris-HCl pH 7.5, 150 mM NaCl, 5 mM EDTA, 1% Triton X-100, 10% glycerol; blot for Hic-5 or Trip-6

Substance: Hic-5 deletion mutant removing LIM domains 2-4 (domain or fragment)
- binding: no binding
